Publication PMC11324514

Protein sequences, listed by entry. Tags and fused reporters are not part of them.
UniProt Q07157: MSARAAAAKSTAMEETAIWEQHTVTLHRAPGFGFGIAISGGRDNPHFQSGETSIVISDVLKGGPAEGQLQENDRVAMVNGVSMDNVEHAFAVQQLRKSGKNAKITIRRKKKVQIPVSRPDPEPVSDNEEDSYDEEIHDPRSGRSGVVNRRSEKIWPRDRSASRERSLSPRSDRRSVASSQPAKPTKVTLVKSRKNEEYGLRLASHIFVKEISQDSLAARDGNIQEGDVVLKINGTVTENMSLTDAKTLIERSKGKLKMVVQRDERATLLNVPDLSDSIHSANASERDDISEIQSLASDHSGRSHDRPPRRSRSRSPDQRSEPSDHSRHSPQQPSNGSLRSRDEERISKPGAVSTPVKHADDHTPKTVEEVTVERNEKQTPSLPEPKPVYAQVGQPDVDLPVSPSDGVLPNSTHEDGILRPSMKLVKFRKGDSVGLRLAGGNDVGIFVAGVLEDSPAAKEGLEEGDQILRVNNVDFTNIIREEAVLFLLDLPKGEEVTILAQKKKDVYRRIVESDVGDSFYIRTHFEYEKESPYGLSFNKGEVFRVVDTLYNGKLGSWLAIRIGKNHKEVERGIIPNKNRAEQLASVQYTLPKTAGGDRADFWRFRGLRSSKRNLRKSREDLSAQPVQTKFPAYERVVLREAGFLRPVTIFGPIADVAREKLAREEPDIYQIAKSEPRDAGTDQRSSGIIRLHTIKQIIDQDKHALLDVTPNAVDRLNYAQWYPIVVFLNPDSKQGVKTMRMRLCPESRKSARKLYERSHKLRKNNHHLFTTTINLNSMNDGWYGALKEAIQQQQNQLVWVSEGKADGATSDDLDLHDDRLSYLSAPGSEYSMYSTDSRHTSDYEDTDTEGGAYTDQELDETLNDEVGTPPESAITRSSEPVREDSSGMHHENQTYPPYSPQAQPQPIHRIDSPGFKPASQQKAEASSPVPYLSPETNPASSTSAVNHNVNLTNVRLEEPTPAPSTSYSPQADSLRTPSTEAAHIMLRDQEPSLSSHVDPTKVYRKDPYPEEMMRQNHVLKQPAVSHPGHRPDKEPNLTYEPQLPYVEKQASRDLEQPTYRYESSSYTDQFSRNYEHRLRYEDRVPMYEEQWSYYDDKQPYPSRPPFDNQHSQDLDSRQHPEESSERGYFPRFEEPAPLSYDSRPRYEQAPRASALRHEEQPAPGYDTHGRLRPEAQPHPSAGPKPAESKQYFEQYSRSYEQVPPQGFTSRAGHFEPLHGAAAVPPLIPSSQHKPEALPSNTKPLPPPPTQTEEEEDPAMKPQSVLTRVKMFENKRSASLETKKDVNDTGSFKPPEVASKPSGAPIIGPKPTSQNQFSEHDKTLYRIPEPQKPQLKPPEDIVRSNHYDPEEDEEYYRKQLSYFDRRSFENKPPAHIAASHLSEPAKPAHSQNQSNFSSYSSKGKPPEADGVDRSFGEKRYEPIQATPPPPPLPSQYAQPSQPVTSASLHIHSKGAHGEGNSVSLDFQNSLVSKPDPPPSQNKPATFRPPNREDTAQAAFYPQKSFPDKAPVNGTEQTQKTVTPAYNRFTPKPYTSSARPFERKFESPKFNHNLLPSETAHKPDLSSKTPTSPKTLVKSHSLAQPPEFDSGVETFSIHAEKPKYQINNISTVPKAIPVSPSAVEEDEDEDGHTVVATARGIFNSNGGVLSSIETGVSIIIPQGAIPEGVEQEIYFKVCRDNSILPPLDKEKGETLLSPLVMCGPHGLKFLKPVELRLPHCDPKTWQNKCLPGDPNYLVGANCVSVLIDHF
UniProt E2QYC9: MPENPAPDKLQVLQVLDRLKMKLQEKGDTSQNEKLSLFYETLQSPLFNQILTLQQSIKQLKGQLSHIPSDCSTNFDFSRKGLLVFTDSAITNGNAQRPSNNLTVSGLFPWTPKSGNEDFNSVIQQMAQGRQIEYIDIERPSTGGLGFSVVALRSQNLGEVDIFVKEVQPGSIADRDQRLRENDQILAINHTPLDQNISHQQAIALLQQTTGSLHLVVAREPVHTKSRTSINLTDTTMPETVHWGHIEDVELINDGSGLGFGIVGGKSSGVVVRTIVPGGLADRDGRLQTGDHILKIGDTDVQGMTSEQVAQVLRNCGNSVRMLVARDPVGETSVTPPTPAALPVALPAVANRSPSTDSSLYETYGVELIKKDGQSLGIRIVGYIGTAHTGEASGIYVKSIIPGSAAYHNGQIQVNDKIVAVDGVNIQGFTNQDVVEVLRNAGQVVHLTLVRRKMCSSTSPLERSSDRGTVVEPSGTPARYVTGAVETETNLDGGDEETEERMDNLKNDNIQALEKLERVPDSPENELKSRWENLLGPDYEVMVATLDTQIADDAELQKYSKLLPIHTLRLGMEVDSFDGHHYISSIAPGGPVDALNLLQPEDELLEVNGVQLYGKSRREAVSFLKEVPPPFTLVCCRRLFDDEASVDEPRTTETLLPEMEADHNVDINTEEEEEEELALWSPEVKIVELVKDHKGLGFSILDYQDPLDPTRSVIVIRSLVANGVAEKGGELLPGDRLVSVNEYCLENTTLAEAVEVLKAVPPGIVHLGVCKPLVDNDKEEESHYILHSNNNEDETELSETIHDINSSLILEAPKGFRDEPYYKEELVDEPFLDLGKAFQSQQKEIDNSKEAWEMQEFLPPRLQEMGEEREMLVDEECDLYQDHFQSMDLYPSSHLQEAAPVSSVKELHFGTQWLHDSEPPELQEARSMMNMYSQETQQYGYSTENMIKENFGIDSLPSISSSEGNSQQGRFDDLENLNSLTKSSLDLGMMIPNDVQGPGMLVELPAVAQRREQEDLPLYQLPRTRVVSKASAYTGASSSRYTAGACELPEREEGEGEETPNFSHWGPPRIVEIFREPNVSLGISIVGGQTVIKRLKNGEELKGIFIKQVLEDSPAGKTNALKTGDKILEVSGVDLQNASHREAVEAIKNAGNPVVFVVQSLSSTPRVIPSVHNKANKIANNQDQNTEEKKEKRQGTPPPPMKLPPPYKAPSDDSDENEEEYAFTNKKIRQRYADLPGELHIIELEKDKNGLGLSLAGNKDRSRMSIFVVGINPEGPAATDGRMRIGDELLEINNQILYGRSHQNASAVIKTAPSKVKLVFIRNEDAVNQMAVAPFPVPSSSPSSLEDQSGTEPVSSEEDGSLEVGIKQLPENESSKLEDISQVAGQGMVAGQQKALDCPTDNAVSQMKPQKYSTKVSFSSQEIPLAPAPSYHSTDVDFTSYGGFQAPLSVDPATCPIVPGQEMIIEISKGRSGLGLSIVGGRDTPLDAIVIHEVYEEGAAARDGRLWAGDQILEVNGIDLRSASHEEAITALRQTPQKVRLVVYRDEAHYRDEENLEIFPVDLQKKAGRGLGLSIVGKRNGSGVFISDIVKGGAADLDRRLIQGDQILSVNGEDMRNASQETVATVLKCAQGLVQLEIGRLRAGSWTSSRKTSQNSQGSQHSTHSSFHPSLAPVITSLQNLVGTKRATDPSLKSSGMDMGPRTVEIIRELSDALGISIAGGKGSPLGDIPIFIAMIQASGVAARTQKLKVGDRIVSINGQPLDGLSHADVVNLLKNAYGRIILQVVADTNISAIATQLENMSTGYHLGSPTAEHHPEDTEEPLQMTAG

biological target: Dendra2–ZO-1–APEX2 (UniProt Q07157); test: proximity labelling; Dendra2–ZO-1–APEX2 in MDCK-II monolayers; calcium switch, labelling at 0, 0.5, 1, 3 and 18 h; 1 mM biotin phenol 30 min, 1 mM H2O2 1 min; streptavidin pull-down, TMT mass spectrometry; enrichment against 0 h; proximity < 20 nm

Molecule | binding
PATJ (endogenous, MDCK-II) (from UniProt E2QYC9 1-1828) | binds
CGN (protein, UniProt A7YH32 1-1196) MEQASTMAEPRGPVDHGVQIRFITEPVGNAEMDTLRRGGRRPAKDARANTYGVAVRVQGIAGQPFVVLNSGEQGSDSFGVQIKGTNNRGPPGALSSDSELPESTYSHAKEFPARSQGSMSDEELGAHWNGRLLRSQSQASLKGPAPVSPSTRSTSLLQLAPEVASPGSTIDTAPLSSVDSLINKFDSRQGGQARGRTGRRMRTLPPEQRKRSQSLDNRLPRDTLDEREHQFPTHWTPSTKRDSHMGNSKQSSQNQGPLGGFSCSRQTQDWVLQSFEEPRGRAWDPGMLQFKSTPDLLRDQQETAPPGSVDHVKATIYSILREGSSETETSVRRKVNLVLEQMQPLVMTSGSAKGLTGQSELSQKVEELQQKLDEEVKKRPKLESSRLGLERQLQEKAEECSQLQELLERRKGEAQQSTKELQNMKLLVDQSERVRCGLEAQVKELQDKLKQAQEPEPAKEALMKDLLEARELLEEVLEGKQRMEEHLRLRERELTALKGALKEEVASRDQEVEHVRQQCQRDAEQLRRSIQDATQDHAALEVERQKMSTLVRELQKELEETSEETGHWQSMFQKNKDELRATKQELLQLRMEKEEIEEELGEKIEVLQRELGQARAGAADTRQMEELKKELCQTQKELKELKEEQQNQEVAGRHRERELEKQLKVEADRGQGLEQQNLQLQKTLQQLRQDCEEASKAQVAAEAEVAVLGQRRAAVEVTLRETQEENDEFRRRILGLEQQLKEARGLAEGGEVAEARLRDKVQRLEAEKQRLEEALNAAQEEEGSLAAAKRALEARLEEAQRGLARLGQEQLALNRALEEEGKQREALRRSKAELEEQKRLLDKTVCQLNKELEQIGNDSKQALQQLQAQLEDYKEKARREVADAQRQAKEWATEAEKNSGGLSRLQDETQRLRQALQASQADRDTARLDKELLAQRLQGLEQEAENKKRSQDDRARQLKGLEEKVSRLEAELDEERSTVELLTERVTRGRDQVDQLRSELMQERSARQDLECDKISLERQNKDLKSRLASSEGFQKPSASLSQLESQNQELQERLQAEEREKTVLQSTNRKLERRVKELSIQIDDERQHVNDQKDQLSLRVKALKRQVDEAEEEIERLDGLRKKAQRELEEQHEVNEQLQARIKTLEKDSWRKASRSAAESAQREGLSSDEEFDSVYDPSSIASLLTESNLQTSSC | binds
ZO-2 (protein, UniProt Q95168 1-1174) MEELIWEQYTVTLQKDSKRGFGIAVSGGRDNPHFENGETSIVISDVLPGGPADGLLQENDRVVMVNGTPMEDVLHSFAVQQLRKSGKIAAIVVKRPRKVQLAPPQGSLPVDEDDRAFEVMDEFDGRSARSGYSERSRRSSHGGRSRSWEDSPERGRPHERAWSQERERSRGRSLERGLDHDDDYRRPRERSRGRSLERGLDHDDDYGRPGERSHGMSTDRGYDRGYDRGYDRGYDRTYSPEAEYGRRTQPDARHAGSRSRSREHLRSRSPSPELRGRPDHAGQPDSDRPIGVLLMKSKANEEYGLRLGSQIFIKQMTRTALATKDGNLHEGDIILKINGTVTENMSLTDARKLIEKSRGKLQLVVLRDSKQTLINIPSLNDSDSEIEDISEIESNRSFSPEERRQQYSDYDYHSSNEKLKERPNSREDMQNRWSRMGATPTPFKSMGDIASVVGTENSKEPRYQEEPPAPQPKAAPRTFLRPSPEDEAIYGPNTKMVRFKKGDSVGLRLAGGNDVGIFVAGIQEGTSAEQEGLQEGDQILKVNTQDFRGLVREDAVLYLLEIPKGEMVTILAQSRADVYRDILACGRGDSFFIRSHFECEKETPQSLAFSRGEVFRVVDTLYDGKLGHWLAVRIGNELEKGLIPNKSRAEQMASVQNAQRDNAGDRADFWRMRGQRSGMKKNLRKSREDLTAAVSVSTKFPAYERVLLREAGFKRPVVLFGPIADIALEKLANELPDLFQTAKTEPKDAGSEKSSGVVRLNTVRQIIEQDKHALLDVTPKAVDLLNYTQWFPIVIFFNPDSRQGVKTMRQRLNPTSNKSSRKLYDQANKLKKTCAHLFTATINLNSANDSWFGSLKDTIQHQQGEAVWVSEGKMEGMDDDPEDRMSYLTAMGADYLSCDSRLISDFEDTDGEGGAYTDNELDEPAEEPLVSSITRSSEPVQHEESIRKPSPEPRAQMRRAASRDQLRDSSPPPAFKPEPPKAKTQNREESFDISRSHDYKSNPSAVAGNEVSGASTRSCPPPIAAKPSFGRSILKPSTPVPSPESEEVGEGSEEQEGAPKSVLGKVKIFEKMDHKARLQRMQELQEAQNARIEIAQKHPDIYAVPIKTHKPDPGLSQHTSSRPPEPQKGPSRLYQDPRGSYGSDAEEEEYRQQLSEHSKRGYYSQPSRYRDTEL | binds

Other lines, results leading:

binding | Molecule
binds | claudin-4 (protein, UniProt A0A8C0N7E5 1-210) MASMGLQVMGIALAVLGWLGAILSCALPMWRVTAFIGSNIVTSQTIWEGLWMNCVVQSTGQMQCKVYDSLLALPQDLQAARALMVVSIILAALGVLLSVVGGKCTNCVEDESAKAKTMIVAGVVFLLAGLLVMVPASWTANNIIRDFYNPLVVSGQKREMGASLYVGWAASGLLLLGGALLCCNCPPRADKPYSAKYSAAARSAPASNYV
binds | occludin (protein, UniProt Q28269 1-521) MSSRPFESPPPYRPDEFKPNHYAPSNDVYGGDMHVRPMLSQPAYSFYPEDEILHFYKWTSPPGVIRILSMLVIVMCIAIFGCVASTLAWDRGYGTGLMGGSIGYPYGSGFGSYGTGYGYGFGYGYGYGGYTDPRAAKGFLLAMVAFCFIAALVIFVTSVIRSDISRTRRYYLTVIILSAFLGVMMFIATIVYIMGVNPTAQASGSLYSSQIYAMCNQFYASTATGLYMDQYLYHYCVVDPQEAIAIVLGFMVIVAFALIIFFAVKTRRKMDRYDKSNILWDKEHIYDEQPPNVEEWVKNVSAGTQDMPPPPSDYVERVDSPMAYSSNGKVNDKRLYPESSYKSTPVPEVVQELPATSPADDFRQPRYSSSGHLEPPSKRAPSKGRTGRPKRLEQDHYETDYTTGGESCDELEEDWIREYPPITSDQQRQLYKRNFDTGLQEYKSLQAELDEINKELSRLDKELDDYREESEEYMAAADEYNRLKQVKGSPDYKNKRNYCKQLKSKLSHIKKMVGDYDRQKT

Results are given in words; binding and its absence hold for the method and conditions named. Binding seen in cells or lysates may run through a third protein. These calls come from enrichment with a bait or labelling near it, and not all partners need be listed.
